Test results taken from patent US20060100431A1, “Biologically active compounds” (Amura Therapeutics Limited, priority 2002, published 2006).
Some of these results come from one statement about several compounds together. At least one compound was matched to its structure with a doubt left.

Sequences of proteins named here, by UniProt entry; tags and fusion partners are left off. A change or cut given only in a name is not applied to a line headed by its entry.
UniProt P25779: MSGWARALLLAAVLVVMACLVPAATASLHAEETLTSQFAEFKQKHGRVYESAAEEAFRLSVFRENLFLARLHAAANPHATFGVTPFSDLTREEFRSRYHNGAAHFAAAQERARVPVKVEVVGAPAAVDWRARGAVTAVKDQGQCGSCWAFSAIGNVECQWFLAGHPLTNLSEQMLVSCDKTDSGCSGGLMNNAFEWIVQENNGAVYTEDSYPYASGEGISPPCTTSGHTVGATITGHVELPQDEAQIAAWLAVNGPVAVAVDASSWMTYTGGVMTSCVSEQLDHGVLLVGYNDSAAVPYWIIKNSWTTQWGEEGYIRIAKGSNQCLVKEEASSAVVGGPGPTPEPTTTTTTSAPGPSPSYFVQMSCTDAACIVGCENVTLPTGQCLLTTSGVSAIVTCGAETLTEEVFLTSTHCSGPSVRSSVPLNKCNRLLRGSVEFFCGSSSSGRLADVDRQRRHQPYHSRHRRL

Experiments:
[1] = biological target: T1, human cathepsin K (Homo sapiens, UniProt P43235); assay: Cathepsin K peptidase activity assay (Ki); type: biochemical; details: read-out: Ki, inhibitors of cathepsin K
T1 construct: Dr. Boris Turk (Josef Stefan Institute, Ljubljana, Slovenia)
T1 sequence (P43235 115-329): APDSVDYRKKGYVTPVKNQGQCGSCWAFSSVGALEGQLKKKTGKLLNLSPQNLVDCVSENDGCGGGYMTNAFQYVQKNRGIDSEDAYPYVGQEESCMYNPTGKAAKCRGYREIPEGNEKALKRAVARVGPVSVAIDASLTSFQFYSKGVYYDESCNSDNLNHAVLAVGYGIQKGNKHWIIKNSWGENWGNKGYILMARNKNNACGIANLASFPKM
Experimental: Unless otherwise stated, all general chemicals and biochemicals were purchased from either the Sigma Chemical Company, Poole, Dorset, U.K or from Fisher Scientific UK, Loughborough, Leicestershire, U.K. Absorbance assays were carried out in flat-bottomed 96-well plates (Spectra; Greiner Bio-One Ltd., Stonehouse, Gloucestershire, U.K.) using a SpectraMax PLUS384 plate reader (Molecular Devices, Crawley, U.K.). […] Fluorescence assays were monitored using a SpectraMax Gemini fluorescence plate reader (Molecular Devices). For substrates employing either a 7-amino-4-methylcoumarin (AMC) or a 7-amino-4-trifluoromethylcoumarin (AFC) fluorophore, assays were monitored at an excitation wavelength of 365 nm and an emission wavelength of 450 nm and the fluorescence plate reader calibrated with AMC. For substrates employing a 3-amino-benzoyl (Abz) fluorophore, assays were monitored at an excitation wavelength of 310 nm and an emission wavelength of 445 nm; the fluorescence plate reader calibrated with 3-amino-benzamide (Fluka). […]
Enzyme was added as required to initiate the reaction and the activity, as judged by the change in fluorescence upon conversion of substrate to product, was monitored over time. […]
The apparent inhibition constant (Ki) for each compound was determined on the basis that inhibition was reversible and occurred by a pure-competitive mechanism. […]

[2] = biological target: Wild-type cruzipain (Trypanosoma cruzi, UniProt P25779); assay: Trypanosoma cruzi cruzipain peptidase activity assay (Ki); type: biochemical; details: read-out: Ki, inhibitors of cruzain and cruzipains
Experimental: Unless otherwise stated, all general chemicals and biochemicals were purchased from either the Sigma Chemical Company, Poole, Dorset, U.K or from Fisher Scientific UK, Loughborough, Leicestershire, U.K. Absorbance assays were carried out in flat-bottomed 96-well plates (Spectra; Greiner Bio-One Ltd., Stonehouse, Gloucestershire, U.K.) using a SpectraMax PLUS384 plate reader (Molecular Devices, Crawley, U.K.). Fluorescence high throughput assays were carried out in either 384-well microtitre plates (Corning Costar 3705 plates, Fisher Scientific) or 96-well ‘U’ bottomed Microfluor W1 microtitre plates (Thermo Labsystems, Ashford, Middlesex, U.K.). Fluorescence assays were monitored using a SpectraMax Gemini fluorescence plate reader (Molecular Devices). For substrates employing either a 7-amino-4-methylcoumarin (AMC) or a 7-amino-4-trifluoromethylcoumarin (AFC) fluorophore, assays were monitored at an excitation wavelength of 365 nm and an emission wavelength of 450 nm and the fluorescence plate reader calibrated with AMC. For substrates employing a 3-amino-benzoyl (Abz) fluorophore, assays were monitored at an excitation wavelength of 310 nm and an emission wavelength of 445 nm; the fluorescence plate reader calibrated with 3-amino-benzamide (Fluka). Unless otherwise indicated, all the peptidase substrates were purchased from Bachem UK, St Helens, Merseyside, UK. […]

With Cc1ccc(S(=O)(=O)NCC(=O)N2CC(=O)[C@@H]3[C@H]2CCN3C(=O)[C@H](CC(C)C)NC(=O)c2ccc(N(C)C)cc2)cc1 [Example 184, (3aR,6aS)-4-Dimethylamino-N-((1S)-3-methyl-1-{6-oxo-4-[2-(toluene-sulfonylamino)-acetyl]-hexahydro-pyrrolo[3,2-b]pyrrole-1-carbonyl}-butyl)-benzamide] the Ki [1] was 1 to 5000 nM and the Ki [2] was < 5 µM.
